PMC7986153 (Angewandte Chemie (International Ed. in English), 2021)

Assay: general procedure: peptide synthesis; Polystyrene resin with a 2-chlorotrityl chloride linker; COMU, Oxyma, DIPEA
Conditions: whole synthesis

Substance: PEPTIDE1{[ac].I.E.P.D.[PABA-dioxetane]}$$$$V2.0
- final HPLC purity (HPLC-MS at 220 nm): >95%
- isolated yield (overall): around 30%

HELM strings list residues between dots; [ac] is acetyl, [am] amide, other brackets name non-standard units.
